Results from article PMC4776135, “Small Molecule Inhibition of Ligand-Stimulated RAGE-DIAPH1 Signal Transduction” (Scientific Reports, 2016).
These are yes or no findings as the source states them, for the method shown. Some entries that bind do so weakly or less than the wild type. Sequences can lack the tags named with a protein.

By UniProt entry, the sequences of proteins in these tests, tags left out.
UniProt O60610: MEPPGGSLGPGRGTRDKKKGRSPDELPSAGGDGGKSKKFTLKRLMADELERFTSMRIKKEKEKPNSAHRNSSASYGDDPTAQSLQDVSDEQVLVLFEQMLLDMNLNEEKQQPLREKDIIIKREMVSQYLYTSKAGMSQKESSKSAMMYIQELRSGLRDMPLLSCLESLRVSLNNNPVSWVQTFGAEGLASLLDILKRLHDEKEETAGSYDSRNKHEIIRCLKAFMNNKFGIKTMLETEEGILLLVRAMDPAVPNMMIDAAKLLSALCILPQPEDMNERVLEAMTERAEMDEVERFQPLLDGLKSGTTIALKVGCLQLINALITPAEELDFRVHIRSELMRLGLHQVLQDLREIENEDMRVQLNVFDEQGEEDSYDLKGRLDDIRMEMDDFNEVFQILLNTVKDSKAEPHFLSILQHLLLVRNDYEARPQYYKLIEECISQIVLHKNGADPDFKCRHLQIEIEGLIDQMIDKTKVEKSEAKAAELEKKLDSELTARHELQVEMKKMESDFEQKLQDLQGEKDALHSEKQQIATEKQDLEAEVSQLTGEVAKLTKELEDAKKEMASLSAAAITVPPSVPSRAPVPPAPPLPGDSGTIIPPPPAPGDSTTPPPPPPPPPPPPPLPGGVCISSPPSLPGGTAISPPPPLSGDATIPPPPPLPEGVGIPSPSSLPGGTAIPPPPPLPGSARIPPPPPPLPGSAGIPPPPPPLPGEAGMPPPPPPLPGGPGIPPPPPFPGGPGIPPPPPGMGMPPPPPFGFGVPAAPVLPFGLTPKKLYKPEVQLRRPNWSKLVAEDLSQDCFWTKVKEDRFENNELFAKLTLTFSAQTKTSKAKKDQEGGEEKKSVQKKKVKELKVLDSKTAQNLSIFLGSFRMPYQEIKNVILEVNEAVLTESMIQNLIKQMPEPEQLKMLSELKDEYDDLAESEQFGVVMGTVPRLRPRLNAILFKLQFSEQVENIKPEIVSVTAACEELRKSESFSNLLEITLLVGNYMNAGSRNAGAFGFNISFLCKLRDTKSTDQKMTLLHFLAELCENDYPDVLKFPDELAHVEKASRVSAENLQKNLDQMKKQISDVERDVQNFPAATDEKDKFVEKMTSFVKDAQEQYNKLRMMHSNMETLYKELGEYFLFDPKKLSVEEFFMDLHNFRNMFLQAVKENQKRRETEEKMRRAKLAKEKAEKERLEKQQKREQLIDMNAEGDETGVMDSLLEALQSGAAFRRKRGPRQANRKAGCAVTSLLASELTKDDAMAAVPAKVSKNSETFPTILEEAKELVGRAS

Biological target: mammalian diaphanous 1 (DIAPH1) (human (endogenous in HeLa)) (UniProt O60610)
Assay: ELISA; 384-well plates coated with anti-DIAPH1 antibody (62.5 ng/well), blocked with 3% BSA; DIAPH1 captured from HeLa cell lysate (10 ug/well, 3 h, room temperature), washed with PBS; GFP-ctRAGE (64.5 uM) added with test small molecules (10 uM; then four-point dose response 10, 1, 0.1, 0.01 uM) for 2 h at room temperature; read in an EnVision Multilabel Reader; only the binder purified

## LWQRRQRRGEERKAPENQEEEEERAELNQSEEPEAGESSTGGP (domain or fragment) [GFP-labeled cytoplasmic domain of human RAGE (GFP-ctRAGE)]
  binding: binds
